Assay results taken from the supplement of paper PMC6078165.
Values are relative to the signal before dosing, not to a vehicle control; the signal also falls without drug.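 Labels refer to human fibroblasts, largely primary: uterine (C12385, HUF), lung (H6013), bone (Hs27A), adrenal (HADF), skin (WS1), plus mammary HMF and breast cancer-associated Hs343T. Cancer lines are basal-like or mesenchymal-like triple-negative breast cancer. The paper counts as hits responses shifting over 3x the replicate standard deviation. The tissue of the other fibroblasts is not given here.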

Test system: Hs578T
Test: relative JC-1 red fluorescence (viability) vs pre-drug, coculture with fibroblast (fraction); higher = more viable cancer cells
Conditions: 10 µM
Description: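 JC-1 labelled TNBC cells cocultured 1:1 (1,500 cells each) with CellTrace Violet stained primary or stromal fibroblasts in 384-well plates in FluoroBrite medium, treated with one of 42 anticancer drugs at 0.1, 1, 10 or 100 uM. JC-1 red fluorescence (mitochondrial integrity in cancer cells only) was read by plate reader every 8 h for 72 h. Values are normalised to each well's pre-drug value. The stock of one drug was tenfold lower, so its dose labels may be too high.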

CC(C)C[C@H](NC(=O)[C@@H](COC(C)(C)C)NC(=O)[C@H](Cc1ccc(O)cc1)NC(=O)[C@H](CO)NC(=O)[C@H](Cc1c[nH]c2ccccc12)NC(=O)[C@H](Cc1cnc[nH]1)NC(=O)[C@@H]1CCC(=O)N1)C(=O)N[C@@H](CCCNC(=N)N)C(=O)N1CCC[C@H]1C(=O)NNC(N)=O [Goserelin]
Conditions	relative JC-1 red fluorescence
8 h	0.90939
16 h	0.7902
24 h	0.72741
32 h	0.6821
40 h	0.614
48 h	0.573
56 h	0.539
64 h	0.501
72 h	0.481

relative JC-1 red fluorescence
Conditions	8 h	16 h	24 h	32 h	40 h	48 h	56 h	64 h	72 h
coculture fibroblast: C12385	0.8429	0.704	0.665	0.582	0.521	0.478	0.443	0.422	0.409
coculture fibroblast: H6013	0.866	0.788	0.755	0.742	0.718	0.716	0.706	0.694	0.67
coculture fibroblast: H6019	0.786	0.721	0.677	0.589	0.546	0.513	0.477	0.452	0.417
coculture fibroblast: H6076	0.8932	0.8167	0.764	0.7442	0.7018	0.705	0.678	0.672	0.667
coculture fibroblast: H6231	0.918	0.795	0.719	0.675	0.608	0.585	0.535	0.507	0.477
coculture fibroblast: HADF	0.891	0.7888	0.712	0.653	0.61	0.573	0.542	0.527	0.494
coculture fibroblast: HCFa	0.862	0.767	0.69	0.627	0.558	0.527	0.492	0.48	0.455
coculture fibroblast: HCPF	0.938	0.846	0.802	0.758	0.703	0.672	0.643	0.604	0.558
coculture fibroblast: HHSteC	0.921	0.824	0.787	0.752	0.69089	0.662	0.629	0.608	0.578
coculture fibroblast: HMF	0.885	0.798	0.7183	0.684	0.617	0.588	0.55	0.525	0.504
coculture fibroblast: HPFa	0.924	0.831	0.772	0.716	0.666	0.631	0.585	0.56	0.513
coculture fibroblast: HUF	0.877	0.729	0.705	0.6035	0.5402	0.5101	0.4767	0.4668	0.454
coculture fibroblast: Hs27A	0.9032	0.825	0.766	0.709	0.655	0.634	0.596	0.578	0.525
coculture fibroblast: Hs343T	0.923	0.82	0.74	0.709	0.65	0.612	0.56	0.524	0.504
coculture fibroblast: WS1	0.839	0.737	0.654	0.561	0.487	0.451	0.415	0.391	0.378
